This note sets out measurements from publication PMC3492188.

Protein sequences, listed by entry. Tags and fused reporters are not part of them.
UniProt P19091: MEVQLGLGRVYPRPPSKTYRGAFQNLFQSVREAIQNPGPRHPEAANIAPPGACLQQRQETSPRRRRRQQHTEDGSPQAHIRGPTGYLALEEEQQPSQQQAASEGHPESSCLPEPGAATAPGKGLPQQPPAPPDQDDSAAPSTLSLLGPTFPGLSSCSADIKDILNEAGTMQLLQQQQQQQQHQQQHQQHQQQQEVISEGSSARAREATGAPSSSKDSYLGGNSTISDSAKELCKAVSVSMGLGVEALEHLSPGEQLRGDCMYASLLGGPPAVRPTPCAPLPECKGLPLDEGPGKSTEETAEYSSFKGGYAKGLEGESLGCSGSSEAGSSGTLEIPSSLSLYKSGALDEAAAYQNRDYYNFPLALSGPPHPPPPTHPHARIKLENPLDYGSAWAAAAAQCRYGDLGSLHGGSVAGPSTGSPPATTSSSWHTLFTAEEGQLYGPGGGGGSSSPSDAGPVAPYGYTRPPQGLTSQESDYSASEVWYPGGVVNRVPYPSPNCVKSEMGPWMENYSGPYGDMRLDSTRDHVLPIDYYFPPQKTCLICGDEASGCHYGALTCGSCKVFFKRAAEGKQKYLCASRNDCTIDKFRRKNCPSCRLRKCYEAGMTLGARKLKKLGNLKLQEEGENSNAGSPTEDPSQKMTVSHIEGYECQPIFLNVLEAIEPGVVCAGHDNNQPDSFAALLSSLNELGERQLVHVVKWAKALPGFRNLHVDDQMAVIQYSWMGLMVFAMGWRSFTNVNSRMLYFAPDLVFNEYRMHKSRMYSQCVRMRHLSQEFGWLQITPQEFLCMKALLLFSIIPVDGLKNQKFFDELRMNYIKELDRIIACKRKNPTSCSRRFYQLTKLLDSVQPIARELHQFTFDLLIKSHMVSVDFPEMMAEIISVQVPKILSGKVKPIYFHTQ

These are yes or no findings as the source states them, for the method shown. In cells and extracts the contact can be indirect. Some binding calls cover weakened binding; strength is not graded here. Sequences can lack the tags named with a protein.

Assay [1] addresses T1, GST-COUP-TF II full length (mouse) (UniProt P43135).
T1 sequence: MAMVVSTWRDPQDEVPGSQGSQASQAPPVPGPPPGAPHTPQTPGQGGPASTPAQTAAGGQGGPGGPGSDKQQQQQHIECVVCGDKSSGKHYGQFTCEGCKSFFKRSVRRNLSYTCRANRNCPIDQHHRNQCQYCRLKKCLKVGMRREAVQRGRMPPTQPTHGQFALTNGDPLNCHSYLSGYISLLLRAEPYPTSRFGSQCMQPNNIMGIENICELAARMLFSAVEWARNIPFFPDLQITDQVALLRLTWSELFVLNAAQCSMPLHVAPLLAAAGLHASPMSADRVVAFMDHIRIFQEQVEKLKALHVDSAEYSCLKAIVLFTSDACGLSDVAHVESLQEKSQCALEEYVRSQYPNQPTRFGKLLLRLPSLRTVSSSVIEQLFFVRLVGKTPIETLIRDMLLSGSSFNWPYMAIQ
The assay is described as follows: pull-down; GST fusion proteins immobilised on glutathione-Sepharose-4B beads, incubated with [35S] methionine-labeled in vitro translated protein; GST-binding buffer (20 mM Tris-HCl pH 7.9, 250 mM NaCl, 10% glycerol, 0.05% NP-40, 5 mM MgCl2, 0.5 mM EDTA, 1 mM DTT, 1.5% BSA), overnight at 4°C; SDS-PAGE and autoradiography; only the target purified.

In the next assay the target is T2, GFP-COUP-TF II (mouse) (UniProt P43135).
T2 sequence: T1 sequence
The assay is described as follows: co-IP; PPC-1 cells transfected with AR and GFP-COUP-TF II, treated with 10 nM DHT or vehicle; RIPA lysate; immunoprecipitation with anti-AR (sc-815) or anti-GFP (sc-9996), Western blot with both. On the technique in general: A western blot detects proteins with antibodies after separation by electrophoresis.

For assay [2], the target named is Androgen receptor (AR), expressed in PPC-1 cells (mouse) (UniProt P19091). The description is as above.

Take “Androgen receptor (AR), in vitro translated (from UniProt P19091 1-899)”: the binding entry in assay [1] is listed as “binds”.
On to “Androgen receptor (AR), expressed in PPC-1 cells (from UniProt P19091 1-899)”, for which, in the assay with GFP-COUP-TF II (mouse), the binding result is recorded as “binds”.

B1: GFP-COUP-TF II (protein, UniProt P43135 1-414)
chain: T1 sequence
Regarding B1, the binding result in assay [2] is on record as “binds”.
